Measurements published in CN105384819A.
These are yes or no findings as the source states them, for the method shown. Some results given as binding are weak or reduced against the parent protein; the word gives no strength.

Chains of the proteins cited; added tags and fusions are not shown. Residues count along the entry.
UniProt Q9NR61, residues 27-524: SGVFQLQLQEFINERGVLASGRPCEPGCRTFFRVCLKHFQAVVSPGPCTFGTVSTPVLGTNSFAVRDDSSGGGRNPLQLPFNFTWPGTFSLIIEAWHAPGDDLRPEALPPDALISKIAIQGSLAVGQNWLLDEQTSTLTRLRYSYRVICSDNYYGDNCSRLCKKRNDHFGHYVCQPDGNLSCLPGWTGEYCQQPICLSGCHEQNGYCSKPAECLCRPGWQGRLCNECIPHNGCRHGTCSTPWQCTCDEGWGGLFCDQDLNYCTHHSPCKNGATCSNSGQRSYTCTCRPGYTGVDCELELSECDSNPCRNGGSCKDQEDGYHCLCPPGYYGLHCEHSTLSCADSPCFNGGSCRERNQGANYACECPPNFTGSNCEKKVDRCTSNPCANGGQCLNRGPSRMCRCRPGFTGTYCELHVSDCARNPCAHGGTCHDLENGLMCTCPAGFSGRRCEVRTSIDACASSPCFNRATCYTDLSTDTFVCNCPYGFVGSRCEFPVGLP

Experiments:
rhDLL4(重组人DLL4) (human) [1] = molecular target: rhDLL4(重组人DLL4) (human) (UniProt Q9NR61); test: summary of results (SPR / cell assays)
rhDLL4(重组人DLL4) (human) [2] = molecular target: rhDLL4(重组人DLL4) (human) (UniProt Q9NR61); test: SPR, Biacore X100, rhDLL4 immobilised on CM5 chip

binding (rhDLL4(重组人DLL4) (human) [1]): binds
binding (rhDLL4(重组人DLL4) (human) [2]): binds
B1: 抗人DLL4人源化抗体H3L2 (antibody, human IgG1, lambda, V domains shown)
VH: QVQLVQSGAEVKKPGSSVKVSCKASGYTFSGYWMQWIKQAPGQGLEWIGAIYPGDGDTRYTQKFKGRATLTADKSTSTAYMELSSLRSEDTAVYYCAGGNFFFDYWGQGTLVTVSS
VL: EIVITQSPDFQSVTPKEKVTITCSVSSSISSSYLHWYQQKPDQSPKPWIYGTSNLASGVPSRFSGSGSGTDYTLTINSLEAEDAATYYCQQWSSSPLTFGQGTKLEIKV
